In paper PMC4626045:
No constants are given. Whether binding was seen depends on the method and setting.

Assays:
[1] = target: T1, GTP:adenosylcobinamide-phosphate guanylyl transferase (CobY) from Methanocaldococcus jannaschii (Methanocaldococcus jannaschii), Q58517; experiment: NMR (experiment not told); GTP-bound CobY in solution; told only in the conclusions; both purified; details: remark: other sources report otherwise
T1 chain: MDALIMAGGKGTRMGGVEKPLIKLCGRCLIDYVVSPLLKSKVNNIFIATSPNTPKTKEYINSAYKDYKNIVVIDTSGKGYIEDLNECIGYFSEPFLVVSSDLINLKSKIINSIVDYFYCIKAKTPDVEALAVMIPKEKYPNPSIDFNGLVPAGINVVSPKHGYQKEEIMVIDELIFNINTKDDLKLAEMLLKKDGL

[2] = target: T1, GTP:adenosylcobinamide-phosphate …; experiment: NMR 15N relaxation (T1, T2, rotational correlation time); apo-CobY, 2.0 mM [U-13C,15N] protein in 50 mM Tris, 5 mM DTT, 50 mM NaCl, 10 mM MgCl2, 95% H2O, 5% D2O; 40°C; both purified; details: remark: other sources report otherwise

B1: GTP:adenosylcobinamide-phosphate guanylyl transferase (CobY) from Methanocaldococcus jannaschii, Q58517 1-196 (enzyme)
chain: T1 chain
binding [1]: no binding | binding [2]: no binding (tested: 2.0 mM)
